Patent US10273313B2, “Multimeric mannosides, a process for preparing the same and their uses as a drug” (CENTRE NATIONAL DE LA RECHERCHE SCIENTIFIQUE, priority 2012, dated 2019)
At least one structure is not confirmed: it was looked up by name or label, or the drawing left a doubt. Some entries share one result that the patent states for a list of compounds.

Assays:
[1] = test system: type-1 piliated clinical E. coli isolate UTI89; test: Haemagglutination inhibition assay (HIA), guinea pig erythrocytes; format: cell-based, Escherichia coli; conditions: different bacteria concentrations
Description: Haemagglutination is observed as the red blood cells being held in suspension through the formation of a space-filling cross-linked network with the fimbriated bacteria.
The UIT89 clinical isolate was grown statically 37° C. for 48 hours in LB medium and analysed for haemagglutination of guinea pig red blood cells. Both bacteria and red blood cells (RBCs) were washed 3 times in ice-cold PBS (17 mM K/NaH2PO4, 150 mM NaCl). PBS was used for all dilutions. 96-well round-bottom microtiter plates were used for the dilutions. The titer for agglutination was determined in a 2-fold dilution series in PBS of the bacteria in a volume of 25 μL. Well 1 is a negative control without bacteria but 25 μL PBS. 25 μL PBS and 50 μL 5% RBCs were added to a final 100 μL volume. Upon 1 hour at 4° C., the titer was determined as the lowest concentration of bacteria that led to haemagglutination.
A bacterial concentration of twice the determined haemagglutination titer was kept constant in the haemagglutination inhibition assays. First, a 2-fold dilution series of the inhibitory compounds was performed in 25 μL PBS. Instead, in well 1 only 25 μL PBS was added as a negative control. 25 μL of the bacterial solution and 50 μl of 5% red blood cells were added to reach a final volume of 100 μL.

[2] = test system: AIEC strain LF82 adhesion to T84 intestinal epithelial cells; test: Adhesion assay on T84 cells with thiazolylaminomannosides (Example 22.3); format: cell-based, Escherichia coli; conditions: 100 nM
Description: T84 Intestinal Epithelial cells (overexpressing the receptor CEACAM6) were beforehand incubated for 1 h with the synthetic thiazolylaminomannosides 6-20 (examples 3-17) at different concentrations. Each compound was tested four times at concentrations of 0.1, 1, 10 and 100 μM.
The cells were then infected in the presence of inhibitory compounds by the AIEC strain of reference LF82 for 3 hours at a multiplicity of infection of 10 bacteria to a cell. After 3 h of incubation, the monolayer was washed and the number of AIEC bacteria associated with cells was counted. The level of adhesion of AIEC LF82 strain in the presence of inhibitors (residual adhesion) was expressed relatively to the level of adherence in the absence of any treatment (considered 100%) (FIG. 10).

Structure (SMILES): OC[C@H]1O[C@H](OCCCCCCCOCc2cn(C[C@H]3O[C@@H]4O[C@H]5[C@H](O)[C@@H](O)[C@@H](O[C@H]6[C@H](O)[C@@H](O)[C@@H](O[C@H]7[C@H](O)[C@@H](O)[C@@H](O[C@H]8[C@H](O)[C@@H](O)[C@@H](O[C@H]9[C@H](O)[C@@H](O)[C@@H](O[C@H]%10[C@H](O)[C@@H](O)[C@@H](O[C@H]3[C@H](O)[C@H]4O)O[C@@H]%10CO)O[C@@H]9CO)O[C@@H]8CO)O[C@@H]7CO)O[C@@H]6CO)O[C@@H]5CO)nn2)[C@@H](O)[C@@H](O)[C@@H]1O [Compound 1]
- Increased titer compared with HM [1]: > 16 fold

Structure (SMILES): OCC1OC(OCCCCCCCOCc2cn(CCOCCOCCOCc3cn(CC4OC5OC6C(CO)OC(OC7C(CO)OC(OC8C(CO)OC(OC9C(CO)OC(OC%10C(CO)OC(OC%11C(CO)OC(OC4C(O)C5O)C(O)C%11O)C(O)C%10O)C(O)C9O)C(O)C8O)C(O)C7O)C(O)C6O)nn3)nn2)C(O)C(O)C1O (stereo not drawn) [Compound 3]
- Increased titer compared with HM [1]: > 16 fold

Structure (SMILES): O=C(c1ccc2ccccc2c1)c1cnc(N[C@H]2O[C@H](CO)[C@@H](O)[C@H](O)[C@@H]2O)s1 [Compound 15, 2-(α-D-mannopyranosyl)amino-5-(2-naphthoyl)thiazole]
- Inhibitory effect on adhesion [2]: significant inhibitory effect
